Measurements: PubChem BioAssay AID330 (DTP/NCI, 2004)
The list shows only some results of the screen, not a fair sample: it gathers tests that were run many times, whatever their T/C, doses with no T/C, and many T/C values between a quarter and a half above the control. Further doses and runs are listed elsewhere. T/C is the treated group as % of the vehicle group. Some entries give survivors of the animals treated and no T/C: the source files T/C as zero there, which appears to mark a toxic dose or a test without result, not a measured value. Some survivor counts are full or nearly so, which does not show that the dose was tolerated: survival well below the control is almost never listed, so the zero probably covers shortened survival too. Survivors were counted at the toxicity check, usually on the fifth day, unless a day is given; later deaths do not show. Schedules are NCI's codes, read here as Q, the interval in days (D) or hours (H), X, the number of doses. Some entries were tested several times; their values stand side by side, smallest first. Where survival is the endpoint, this PubChem deposit counts one and a half times the control or more as active, and values a quarter to a half above the control carry no call in these data; other NCI protocols may use other cut-offs.

Test system: P388 leukemia ip, CD2F1 mice, survival T/C
Experiment: NCI In Vivo Anticancer Drug Screen. Data for tumor model P388 Leukemia (intraperitoneal) in CD2F1 (CDF1) mice
Details: T/C endpoint: median survival time, higher T/C = longer survival
[1] = dose: 100.0 mg/kg/injection, schedule: Q01DX009 (ip), vehicle: saline with Tween-80
[2] = dose: 200.0 mg/kg/injection, schedule: Q01DX009 (ip), vehicle: saline with Tween-80
[3] = dose: 100.0 mg/kg/injection, schedule: Q01DX005 (ip), vehicle: saline with Tween-80
[4] = dose: 200.0 mg/kg/injection, schedule: Q01DX005 (ip), vehicle: saline with Tween-80
[5] = dose: 50.0 mg/kg/injection, schedule: Q01DX009 (ip), vehicle: saline with Tween-80
[6] = dose: 50.0 mg/kg/injection, schedule: Q01DX005 (ip), vehicle: saline with Tween-80
[7] = dose: 100.0 mg/kg/injection, schedule: Q04DX003 (ip), vehicle: saline with Tween-80
[8] = dose: 200.0 mg/kg/injection, schedule: Q04DX003 (ip), vehicle: saline with Tween-80
[9] = dose: 400.0 mg/kg/injection, schedule: Q04DX003 (ip), vehicle: saline with Tween-80
[10] = dose: 50.0 mg/kg/injection, schedule: Q01DX005 (ip), vehicle: Klucel (hydroxypropylcellulose) (HPC)
[11] = dose: 100.0 mg/kg/injection, schedule: Q01DX005 (ip), vehicle: Klucel (hydroxypropylcellulose) (HPC)
[12] = dose: 200.0 mg/kg/injection, schedule: Q01DX005 (ip), vehicle: saline
[13] = dose: 100.0 mg/kg/injection, schedule: Q01DX009 (ip), vehicle: Klucel (hydroxypropylcellulose) (HPC)

Compound: CC[As](CC)SC1CCC2(C)C(=CCC3C4CCC(=O)C4(C)CCC32)C1 (configuration not stated)
- T/C (dose: 100.0 mg/kg/injection, schedule: Q01DX009 (ip), vehicle: distilled water + Tween-80): 139 % of control
- survivor count (dose: 200.0 mg/kg/injection, schedule: Q01DX009 (ip), vehicle: distilled water + Tween-80): 2 of 6 and 3 of 6

Compound: C=C1N(c2nc(Cl)nc(Cl)n2)c2ccccc2C1(C)C
- survivor count [1]: 5 of 6
- survivor count [2]: 1 of 6

Compound: O=NNc1ccc(I)cn1
- T/C (dose: 3.13 mg/kg/injection, schedule: Q01DX009 (ip), vehicle: water): 131 % of control
- T/C (dose: 6.25 mg/kg/injection, schedule: Q01DX009 (ip), vehicle: water): 146 % of control
- survivor count (dose: 25.0 mg/kg/injection, schedule: Q01DX009 (ip), vehicle: water): 5 of 6 and 6 of 6
- survivor count (dose: 50.0 mg/kg/injection, schedule: Q01DX009 (ip), vehicle: water): 1 of 6

Compound: COc1ccc(CCN2CCC(CC3CCCCN3)CC2)cc1OC (configuration not stated)
- survivor count (dose: 200.0 mg/kg/injection, schedule: Q01DX009 (ip), vehicle: distilled water + alcohol): 3 of 6

Compound: C[C@]12CCC(=O)C=C1CC[C@@H]1[C@@H]2CC[C@@]2(C)[C@H]1CCCN2CCO
- survivor count (dose: 200.0 mg/kg/injection, schedule: Q01DX001 (ip), vehicle: Klucel (hydroxypropylcellulose) (HPC)): 3 of 5
- survivor count (dose: 400.0 mg/kg/injection, schedule: Q01DX001 (ip), vehicle: Klucel (hydroxypropylcellulose) (HPC)): 1 of 5

Compound: Cc1cc(NN)nc2n[nH]c(N)c12
- survivor count [3]: 1 of 5
- survivor count [4]: 0 of 5

Compound: O=C1OCC2(C(=O)O)C(=O)OCC12 (configuration not stated)
- T/C (dose: 8.0 mg/kg/injection, schedule: Q01DX009 (ip), vehicle: saline with Tween-80): 130 % of control
- T/C (dose: 32.0 mg/kg/injection, schedule: Q01DX009 (ip), vehicle: saline with Tween-80): 126 % of control

Compound: Nc1nc(N)c2cc(Sc3ccc(Cl)cc3)ccc2n1
- T/C [5]: 137 and 141 % of control
- survivor count [2]: 6 of 6

Compound: CCC1=CCCN(Cc2ccccc2)C1C#N (configuration not stated)
- survivor count (dose: 60.0 mg/kg/injection, schedule: Q01DX005 (ip), vehicle: Klucel (hydroxypropylcellulose) (HPC)): 1 of 6
- survivor count (dose: 120.0 mg/kg/injection, schedule: Q01DX005 (ip), vehicle: Klucel (hydroxypropylcellulose) (HPC)): 1 of 6
- survivor count (dose: 240.0 mg/kg/injection, schedule: Q01DX005 (ip), vehicle: Klucel (hydroxypropylcellulose) (HPC)): 0 of 6

Compound: CCOC(=O)CC(C)(O)C1CC1 (configuration not stated)
- T/C (dose: 400.0 mg/kg/injection, schedule: Q01DX009 (ip), vehicle: Klucel (hydroxypropylcellulose) (HPC)): 125 % of control

Compound: C#CCOC(=O)C12CCC(C)(C)CC1C1=CCC3C4(C)CCC(O)C(C)(CO)C4CCC3(C)C1(C)CC2 (configuration not stated)
- survivor count [6]: 6 of 6
- survivor count [3]: 6 of 6
- survivor count [4]: 6 of 6

Compound: O=c1[nH]cc(Cn2cccc3c(=O)ncnc2-3)c(=O)[nH]1
- survivor count (dose: 400.0 mg/kg/injection, schedule: Q01DX001 (ip), vehicle: suspension in saline): 3 of 6

Compound: CCOC(O)C(F)(F)F (configuration not stated)
- survivor count (dose: 400.0 mg/kg/injection, schedule: Q04DX003 (ip), vehicle: saline): 1 of 6

Compound: CNC(=O)OCc1c(COC(=O)NC)c2n(c1C)CS(=O)(=O)C2
- T/C (dose: 25.0 mg/kg/injection, schedule: Q01DX005 (ip), vehicle: saline with Tween-80): 139 % of control
- T/C [6]: 140 and 147 % of control
- survivor count [4]: 6 of 6

Compound: COn1nnc2ccc(N)cc21
- survivor count (dose: 400.0 mg/kg/injection, schedule: Q04DX002 (ip), vehicle: saline): 0 of 6

Compound: CC(C)OC(CCC#N)c1ccc(Cl)cc1 (configuration not stated)
- survivor count [7]: 6 of 6
- survivor count [8]: 1 of 6
- survivor count [9]: 0 of 6

Compound: NC(N)=N/N=C/c1ccc(-c2cc3ccc(/C=N/N=C(N)N)cc3s2)cc1
- T/C [10]: 127 % of control
- T/C [11]: 127 % of control

Compound: CC1CN(C(=O)Nc2ccc(Cl)c(Cl)c2)CC(C)O1 (configuration not stated)
- survivor count [5]: 5 of 6
- survivor count [1]: 5 of 6

Compound: CN=C(c1ccc(NC(=O)c2ccc(C(=O)Nc3ccc(C(=NC)N4CCOCC4)cc3)cc2)cc1)N1CCOCC1
- survivor count (dose: 25.0 mg/kg/injection, schedule: Q01DX005 (ip), vehicle: Klucel (hydroxypropylcellulose) (HPC)): 0 of 6
- survivor count [10]: 0 of 6
- survivor count [11]: 0 of 6
- survivor count (dose: 200.0 mg/kg/injection, schedule: Q01DX005 (ip), vehicle: Klucel (hydroxypropylcellulose) (HPC)): 0 of 6

Compound: CN(C)C(C)(C#N)C(N)=O (configuration not stated)
- survivor count (dose: 12.5 mg/kg/injection, schedule: Q04DX003 (ip), vehicle: saline): 0 of 6
- survivor count (dose: 25.0 mg/kg/injection, schedule: Q04DX003 (ip), vehicle: saline): 0 of 6
- survivor count [7]: 0 of 6
- survivor count [8]: 0 of 6
- survivor count [9]: 0 of 6

Compound: Cc1ccc(C(=O)c2ccc[n+](C)c2)cc1
- survivor count [12]: 0 of 6

Compound: S=C(S)N1CCCCC1
- survivor count [5]: 4 of 6
- survivor count [1]: 3 of 6
- survivor count [2]: 0 of 6

Compound: CCOC(=O)/C=C1/C(=O)OC2C1OC1OC(C)(C)OC12 (configuration not stated)
- survivor count (dose: 15.0 mg/kg/injection, schedule: Q01DX005 (ip), vehicle: saline with Tween-80): 1 of 6
- survivor count (dose: 60.0 mg/kg/injection, schedule: Q01DX005 (ip), vehicle: saline with Tween-80): 0 of 6
- survivor count (dose: 120.0 mg/kg/injection, schedule: Q01DX005 (ip), vehicle: saline with Tween-80): 0 of 6
- survivor count (dose: 240.0 mg/kg/injection, schedule: Q01DX005 (ip), vehicle: saline with Tween-80): 0 of 6

Compound: COc1cc2c(cc1OC(C)=O)C(=O)CCC=C2
- T/C (dose: 100.0 mg/kg/injection, schedule: Q04DX003 (ip), vehicle: saline): 125 % of control
- T/C (dose: 200.0 mg/kg/injection, schedule: Q04DX003 (ip), vehicle: saline): 125 % of control

Compound: O=C(O)/C=C/c1ccc([N+](=O)[O-])o1
- T/C (dose: 50.0 mg/kg/injection, schedule: Q01DX009 (ip), vehicle: Klucel (hydroxypropylcellulose) (HPC)): 140 % of control
- T/C [13]: 135 % of control
- survivor count [13]: 2 of 6
- survivor count (dose: 200.0 mg/kg/injection, schedule: Q01DX009 (ip), vehicle: Klucel (hydroxypropylcellulose) (HPC)): 0 of 6 and 1 of 6

Compound: COc1cc(CCCOC2OC(COC3OCC(O)C(O)C3O)C(O)C(O)C2O)cc2cc(-c3ccc4c(c3)OCO4)oc12 (configuration not stated)
- survivor count (dose: 37.5 mg/kg/injection, schedule: Q01DX005 (ip), vehicle: Klucel (hydroxypropylcellulose) (HPC)): 5 of 6
- survivor count (dose: 75.0 mg/kg/injection, schedule: Q01DX005 (ip), vehicle: Klucel (hydroxypropylcellulose) (HPC)): 6 of 6
- survivor count (dose: 150.0 mg/kg/injection, schedule: Q01DX005 (ip), vehicle: Klucel (hydroxypropylcellulose) (HPC)): 6 of 6

Compound: ClCSCc1ccccc1
- survivor count (dose: 100.0 mg/kg/injection, schedule: Q01DX009 (ip), vehicle: other): 1 of 6
- survivor count (dose: 200.0 mg/kg/injection, schedule: Q01DX009 (ip), vehicle: other): 0 of 6

Compound: Cc1nc(-c2nc(C(=O)NCCC[S+](C)C)cs2)cs1
- survivor count (dose: 100.0 mg/kg/injection, schedule: Q01DX005 (ip), vehicle: saline): 0 of 6
- survivor count [12]: 0 of 6
